No constants are given. Whether binding was seen depends on the method and setting. Some entries that bind do so weakly or less than the wild type.
B1: SPI27 (designed binder)
chain: MHSFCAFKAETGPCKGKIARFFFNIFTRQCEEFIYGGCEGNQNRFESLEECKKMCTRD
B2: SPI21 (designed binder)
chain: MHSFCAFKADSGACKGKFERWFFNIFTRQCEEFIYGGCEGNQNRFESLEECKKMCTRD
B3: SPI31 (designed binder)
chain: MHSFCAFKAETGPCRARFGRWFFNIFTRQCEEFIYGGCEGNQNRFESLEECKKMCTRD
B4: SPI24 (designed binder)
chain: MHSFCAFKADTGPCRGRFERLFFNIFTRQCEEFIYGGCEGNQNRFESLEECKKMCTRD
B5: SPI33 (designed binder)
chain: MHSFCAFKAETGSCRGRFDRWFFNIFTRQCEEFIYGGCEGNQNRFESLEECKKMCTRD
B6: SPI34 (designed binder)
chain: MHSFCAFKAEVGPCRASFPRWFFNIFTRQCEEFIYGGCEGNQNRFESLEECKKMCTRD
B7: SPI26 (designed binder)
chain: MHSFCAFKAETGPCRATFPRFFFNIFTRQCEEFIYGGCEGNQNRFESLEECKKMCTRD
B8: SPI37 (designed binder)
chain: MHSFCAFKAEVGPCRASFHRWFFNIFTRQCEEFIYGGCEGNQNRFESLEECKKMCTRD
B9: SPI32 (designed binder)
chain: MHSFCAFKADTGPCRASFGRWFFNIFTRQCEEFIYGGCEGNQNRFESLEECKKMCTRD
B10: SPI12 (designed binder)
chain: MHSFCAFKAETGPCRGMFPRWFFNIFTRQCEEFIYGGCEGNQNRFESLEECKKMCTRD
B11: SPI36 (designed binder)
chain: MHSFCAFKAEGGPCRARFNRFFFNIFTRQCEEFIYGGCEGNQNRFESLEECKKMCTRD
B12: SPI38 (designed binder)
chain: MHSFCAFKAETGPCRARISRFFFNIFTRQCEEFIYGGCEGNQNRFESLEECKKMCTRD
B13: SPI18 (designed binder)
chain: MHSFCAFKAEGGPCRAKFERFFFNIFTRQCEEFIYGGCEGNQNRFESLEECKKMCTRD
B14: SPI35 (designed binder)
chain: MHSFCAFKADSGACRGRFERWFFNIFTRQCEEFIYGGCEGNQNRFESLEECKKMCTRD
B15: SPI02 (designed binder)
chain: MHSFCAFKADSGPCRGRFERFFFNIFTRQCEEFIYGGCEGNQNRFESLEECKKMCTRD
B16: SPI25 (designed binder)
chain: MHSFCAFKADTGPCRASFPRLFFNIFTRQCEEFIYGGCEGNQNRFESLEECKKMCTRD
B17: SPI05 (designed binder)
chain: MHSFCAFKAESGPCRAKFARFFFNIFTRQCEEFIYGGCEGNQNRFESLEECKKMCTRD
B18: SPI13 (designed binder)
chain: MHSFCAFKAEGGPCRAKFARFFFNIFTRQCEEFIYGGCEGNQNRFESLEECKKMCTRD
B19: SPI07 (designed binder)
chain: MHSFCAFKADTGSCRAKIERWFFNIFTRQCEEFIYGGCEGNQNRFESLEECKKMCTRD
B20: SPI03 (designed binder)
chain: MHSFCAFKADSGPCKARFDRWFFNIFTRQCEEFIYGGCEGNQNRFESLEECKKMCTRD
B21: SPI06 (designed binder)
chain: MHSFCAFKADGGPCKGRFERWFFNIFTRQCEEFIYGGCEGNQNRFESLEECKKMCTRD
B22: SPI04 (designed binder)
chain: MHSFCAFKADGGPCRASFPRFFFNIFTRQCEEFIYGGCEGNQNRFESLEECKKMCTRD
B23: SPI14 (designed binder)
chain: MHSFCAFKADSGACRAKFRRWFFNIFTRQCEEFIYGGCEGNQNRFESLEECKKMCTRD
B24: SPI28 (designed binder)
chain: MHSFCAFKADSGTCKARFPRFFFNIFTRQCEEFIYGGCEGNQNRFESLEECKKMCTRD
B25: QS1 (designed binder)
chain: MHSFCAFKADDGPCKARFERFFFNIFTRQCEQFTYGGCRGNQNRFESLEECKKMCTRD
B26: QS4 displayed on gIIIp of M13 (designed binder)
chain: MHSFCAFKADDGPCKARFERFFFNIFTRQCEQFYYGGCDGNQNRFESLEECKKMCTRD
B27: QS7 (designed binder)
chain: MHSFCAFKADDGPCKARFERFFFNIFTRQCEQFHYGGCDGNQNRFESLEECKKMCTRD
B28: QS8 (designed binder)
chain: MHSFCAFKADDGPCKARFERFFFNIFTRQCEQFDYGGCAGNQNRFESLEECKKMCTRD
B29: QS9 (designed binder)
chain: MHSFCAFKADDGPCKARFERFFFNIFTRQCQEFRYGGCDGNQNRFESLEECKKMCTRD
B30: QS13 (designed binder)
chain: MHSFCAFKADDGPCKARFERFFFNIFTRQCQQFYYGGCQGNQNRFESLEECKKMCTRD
B31: QS15 (designed binder)
chain: MHSFCAFKADDGPCKARFERFFFNIFTRQCEEFAYGGCGGNQNRFESLEECKKMCTRD
B32: NS2 (designed binder)
chain: MHSFCAFKADDGPCKARFERFFFNIFTRQCQQFVYGGCGGNQNRFESLEECKKMCTRD
B33: NS4 (designed binder)
chain: MHSFCAFKADDGPCKARFERFFFNIFTRQCEQFTYGGCGGNQNRFESLEECKKMCTRD
B34: NS6 (designed binder)
chain: MHSFCAFKADDGPCKARFERFFFNIFTRQCEEFTYGGCGGNQNRFESLEECKKMCTRD
B35: NS9 (designed binder)
chain: MHSFCAFKADDGPCKARFERFFFNIFTRQCEQFIYGGCQGNQNRFESLEECKKMCTRD

Protein sequences, listed by entry. Tags and fused reporters are not part of them. Residues count along the entry.
UniProt P00747, residues 97-810: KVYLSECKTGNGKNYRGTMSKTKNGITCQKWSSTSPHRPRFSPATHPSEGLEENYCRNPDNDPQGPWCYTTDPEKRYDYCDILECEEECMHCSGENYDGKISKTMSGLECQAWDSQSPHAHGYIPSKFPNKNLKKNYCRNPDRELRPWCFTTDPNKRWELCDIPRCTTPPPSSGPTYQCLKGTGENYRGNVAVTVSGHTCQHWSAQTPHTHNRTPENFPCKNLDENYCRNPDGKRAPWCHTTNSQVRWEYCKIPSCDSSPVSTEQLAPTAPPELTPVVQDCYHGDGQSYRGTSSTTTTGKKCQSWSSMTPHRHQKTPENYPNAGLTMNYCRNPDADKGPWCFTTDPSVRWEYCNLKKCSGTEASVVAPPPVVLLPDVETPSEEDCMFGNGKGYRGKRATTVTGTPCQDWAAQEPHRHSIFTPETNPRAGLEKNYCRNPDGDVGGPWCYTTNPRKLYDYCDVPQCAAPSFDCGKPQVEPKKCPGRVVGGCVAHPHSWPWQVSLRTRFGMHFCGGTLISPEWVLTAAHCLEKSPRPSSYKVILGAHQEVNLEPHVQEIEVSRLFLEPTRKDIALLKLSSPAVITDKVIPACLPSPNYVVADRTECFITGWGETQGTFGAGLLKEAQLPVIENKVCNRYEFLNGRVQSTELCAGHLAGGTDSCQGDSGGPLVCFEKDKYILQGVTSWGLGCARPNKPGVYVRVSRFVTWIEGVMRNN

Biological target: human plasmin (human) (UniProt P00747)
Assay: phage display selection of the second library on plasmin, selected clone sequenced

binding, binds:
B1
B2
B3
B4
B5
B6
B7
B8
B9
B10
B11
B12
B13
B14
B15
B16
B17
B18
B19
B20
B21
B22
B23
B24

Biological target: human plasmin (human) (UniProt P00747)
Assay: phage display selection on plasmin-agarose beads, selected clone sequenced

binding, binds:
B25
B26
B27
B28
B29
B30
B31
B32
B33
B34
B35

Reference: patent publication US20090036365A1
